Measured data: PubChem BioAssay AID504784 (Drosophila RNAi Screening Center, 2011)
Screen: 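Fly genes whose silencing alters how much lipid cells keep in droplets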 (primary screen). System: Drosophila Kc167 embryonic cells. Reagent: long dsRNA against Drosophila genes, about 250 ng dsRNA per well. Duration: 4 days. Treatment: cells fed 400 µM oleic acid bound to BSA. Measurement: 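Cells imaged and segmented; ratio of lipid droplet area to nuclear area, log-transformed, then normalised as a B-score over the screen; higher means more stored lipid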. Scale: droplet/nuclear area B-score: higher = more stored lipid (overstorage).
In all, the deposit lists about 17,000 reagents; shown is a random part of those that have a named target and a result. 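Each column is one replicate's B-score; the combined score over replicates was not deposited, so single values may mislead.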 A plus sign joins genes that one reagent is predicted to hit. No sequences are given here.

Myt1 [DRSC11228] → droplet/nuclear area B-score, replicate 1 = -1; droplet/nuclear area B-score, replicate 2 = 0.862
CG4911 [DRSC10456] → droplet/nuclear area B-score, replicate 2 = -0.54
alpha-Est1 [DRSC12612] → droplet/nuclear area B-score, replicate 1 = -3.99; droplet/nuclear area B-score, replicate 2 = -0.282
CG11741 [DRSC14367] → droplet/nuclear area B-score, replicate 1 = 0.471; droplet/nuclear area B-score, replicate 2 = -1.26
CG14053 [DRSC17908] → droplet/nuclear area B-score, replicate 1 = 0.59; droplet/nuclear area B-score, replicate 2 = 0.0429
SMC5 [DRSC11849] → droplet/nuclear area B-score, replicate 1 = 1.67; droplet/nuclear area B-score, replicate 2 = -0.992; droplet/nuclear area B-score, replicate 3 = -0.0766
Larp4B [DRSC08192] → droplet/nuclear area B-score, replicate 1 = -0.581; droplet/nuclear area B-score, replicate 2 = 6.17
Larp4B [DRSC23201] → droplet/nuclear area B-score, replicate 1 = -1.48; droplet/nuclear area B-score, replicate 2 = -0.353
ana2 [DRSC05952] → droplet/nuclear area B-score, replicate 1 = 1.51; droplet/nuclear area B-score, replicate 2 = 2.23
Pal1 + Pdrg1 [DRSC06587] → droplet/nuclear area B-score, replicate 1 = 0.518; droplet/nuclear area B-score, replicate 2 = -0.816
Cdk2 [DRSC16921] → droplet/nuclear area B-score, replicate 1 = -0.328; droplet/nuclear area B-score, replicate 2 = 0.164
TwdlQ [DRSC14745] → droplet/nuclear area B-score, replicate 1 = -2.11; droplet/nuclear area B-score, replicate 2 = 0.229
TwdlQ [DRSC23107] → droplet/nuclear area B-score, replicate 1 = 0.339; droplet/nuclear area B-score, replicate 2 = -0.229
Arms [DRSC03856] → droplet/nuclear area B-score, replicate 1 = 0.411; droplet/nuclear area B-score, replicate 2 = -0.736; droplet/nuclear area B-score, replicate 3 = -1.06
Arms [DRSC03857] → droplet/nuclear area B-score, replicate 1 = 0.505; droplet/nuclear area B-score, replicate 2 = 0.927
Arms [DRSC04052] → droplet/nuclear area B-score, replicate 1 = -0.0206; droplet/nuclear area B-score, replicate 2 = 0.285
Arms [DRSC04256] → droplet/nuclear area B-score, replicate 1 = 6.01; droplet/nuclear area B-score, replicate 2 = 5.34
CG10931 [DRSC06015] → droplet/nuclear area B-score, replicate 1 = -1.18; droplet/nuclear area B-score, replicate 2 = -0.0494
ND-15 [DRSC00311] → droplet/nuclear area B-score, replicate 1 = 1.78; droplet/nuclear area B-score, replicate 2 = 4.66
CG11356 [DRSC19401] → droplet/nuclear area B-score, replicate 1 = 0.287; droplet/nuclear area B-score, replicate 2 = -1.48; droplet/nuclear area B-score, replicate 3 = 0.34
brn [DRSC18746] → droplet/nuclear area B-score, replicate 1 = 0.632
MME1 [DRSC02714] → droplet/nuclear area B-score, replicate 1 = 0.252; droplet/nuclear area B-score, replicate 2 = -0.439
Amph [DRSC07578] → droplet/nuclear area B-score, replicate 1 = 2.71; droplet/nuclear area B-score, replicate 2 = -0.582
CG10208 [DRSC14211] → droplet/nuclear area B-score, replicate 1 = -2.84; droplet/nuclear area B-score, replicate 2 = -1.43
CG32054 [DRSC10684] → droplet/nuclear area B-score, replicate 1 = 1.99; droplet/nuclear area B-score, replicate 2 = 1.38

Records listed so far whose gene name begins with M or m:
Myt1 [DRSC11228] → droplet/nuclear area B-score, replicate 1 = -1; droplet/nuclear area B-score, replicate 2 = 0.862
MME1 [DRSC02714] → droplet/nuclear area B-score, replicate 1 = 0.252; droplet/nuclear area B-score, replicate 2 = -0.439

Next entries follow.
Drak [DRSC19778] → droplet/nuclear area B-score, replicate 1 = 0.813; droplet/nuclear area B-score, replicate 2 = -0.0988; droplet/nuclear area B-score, replicate 3 = 0.000839
Drak [DRSC23298] → droplet/nuclear area B-score, replicate 1 = 0.275; droplet/nuclear area B-score, replicate 2 = -0.434
ncd [DRSC17012] → droplet/nuclear area B-score, replicate 1 = 0.132; droplet/nuclear area B-score, replicate 2 = 6.53
CG10347 [DRSC19352] → droplet/nuclear area B-score, replicate 1 = 1.14; droplet/nuclear area B-score, replicate 2 = 1.56; droplet/nuclear area B-score, replicate 3 = 1.81
Ndg [DRSC06223] → droplet/nuclear area B-score, replicate 1 = 0.223; droplet/nuclear area B-score, replicate 2 = 3.08
tbrd-1 [DRSC14601] → droplet/nuclear area B-score, replicate 1 = 0.128; droplet/nuclear area B-score, replicate 2 = -0.844
Cdk8 [DRSC11113] → droplet/nuclear area B-score, replicate 1 = 0.0796; droplet/nuclear area B-score, replicate 2 = -0.107
BomS6 [DRSC21676] → droplet/nuclear area B-score, replicate 1 = -0.604; droplet/nuclear area B-score, replicate 2 = -0.825
Gpdh2 [DRSC04346] → droplet/nuclear area B-score, replicate 1 = -0.0173; droplet/nuclear area B-score, replicate 2 = 0.324
Ddx56 [DRSC20567] → droplet/nuclear area B-score, replicate 1 = -0.00119; droplet/nuclear area B-score, replicate 2 = 2.22
cass [DRSC01850] → droplet/nuclear area B-score, replicate 1 = -1.74; droplet/nuclear area B-score, replicate 2 = -3.14
lectin-46Cb [DRSC06611] → droplet/nuclear area B-score, replicate 1 = -1.97; droplet/nuclear area B-score, replicate 2 = 0.332
CG1394 [DRSC19539] → droplet/nuclear area B-score, replicate 1 = 1.16; droplet/nuclear area B-score, replicate 2 = 1.04; droplet/nuclear area B-score, replicate 3 = 2.46
RNaseZ [DRSC06845] → droplet/nuclear area B-score, replicate 1 = 0.253; droplet/nuclear area B-score, replicate 2 = 1.85
Gr8a [DRSC18043] → droplet/nuclear area B-score, replicate 1 = 0.121; droplet/nuclear area B-score, replicate 2 = 0.721; droplet/nuclear area B-score, replicate 3 = 0.561
